The results in this text go back to article doi:10.1101/364067.

The chains behind the UniProt entries cited, without tags or fusion partners. Where a name states a change or a piece, a line headed by the entry shows the natural chain unless it says otherwise.
UniProt P12520, whole entry: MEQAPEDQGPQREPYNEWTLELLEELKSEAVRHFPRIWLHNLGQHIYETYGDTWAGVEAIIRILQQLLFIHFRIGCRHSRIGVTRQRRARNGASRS

These are yes or no findings as the source states them, for the method shown. In cells and extracts the contact can be indirect. A yes stands for co-enrichment or nearness to the bait. Other partners may have been found.

This experiment has as its target 3xHA tagged Vpr (HIV-1 NL4-3 Vpr) (HIV-1 (NL4-3)) (UniProt P12520). The experiment can be described thus: affinity purification with mass spectrometry.

Regarding KIF18A (from UniProt Q8NI77 1-898), the binding result is listed as “binds”.

As for SMN1 (from UniProt Q16637 1-294), the binding entry is “binds”.

B1: BBX (protein, UniProt Q8WY36 1-941)
chain: MKGSNRNKDHSAEGEGVGKRPKRKCLQWHPLLAKKLLDFSEEEEEEDEEEDIDKVQLLGADGLEQDVGETEDDESPEQRARRPMNAFLLFCKRHRSLVRQEHPRLDNRGATKILADWWAVLDPKEKQKYTDMAKEYKDAFMKANPGYKWCPTTNKPVKSPTPTVNPRKKLWAFPSDSSRDLPSPKKAKTEEMPQLNFGMADPTQMGGLSMLLLAGEHALGTPEVSSGTCRPDVSESPELRQKSPLFQFAEISSSTSHSDASTKQCQTSALFQFAEISSNTSQLGGAEPVKRCGKSALFQLAEMCLASEGMKMEESKLIKAKESDGGRIKELEKGKEEKEIKMEKTDETRLQKEAEFEKSAKENLRDSKELRNFEALQIDDIMAIKMEDPKEIRKEELEEDHKCSHFPDFSYSASSKIIISDVPSRKDHMCHPHGIMIIEDPAALNKPEKLKKKKKKSKMDRHGNDKSTPKKTCKKRQSSESDIESVIYTIEAVAKGDWGIEKLGDTPRKKVRTSSSGKGSILDAKPPKKKVKSREKKMSKEKSSDTTKESRPPDFISISASKNISGETPEGIKAEPLTPMEDALPPSLSGQAKPEDSDCHRKIETCGSRKSERSCKGALYKTLVSEGMLTSLRANVDRGKRSSGKGNSSDHEGCWNEESWTFSQSGTSGSKKFKKTKPKEDCLLGSAKLDEEFEKKFNSLPQYSPVTFDRKCVPVPRKKKKTGNVSSEPTKTSKGPFQSQKKNLFHKIVSKYKHKKEKPNVPEKGSGDKWSNKQLFLDAIHPTEAIFSEDRNTMEPVHKVKNIPSIFNTPEPTTTQEPLVGSQKRKARKTKITHLVRTADGRVSPAGGTLDDKPKEQLQRSLPKATETDCNDKCSHNTEVGETRSSTPEMPAVSAFFSLAALAEVAAMENVHRGQRSTPLTHDGQPKEMPQAPVLISCADQ
In the case of B1, the binding result is recorded as “binds”.
